Measured values from PMC4791640.

Molecular target: TON_1525(T55I) (Thermococcus onnurineus NA1 (156T mutation)) (UniProt B6YTS4)
Experiment: EMSA
Details: 80 C, 10 min, affinity less than wild type, competition EMSA; EMSA: 100 nM DNA, 20 mM Tris-HCl, 200 mM KCl, 1 mM EDTA, 5% glycerol, pH 7.5, 80 C for 10 min; 5% native PAGE; recombinant protein; residues 1-146; protein details: TALON-purified (His tag implied); label: FAM (forward primer named labeled_FAM); probe letters rebuilt from the primers and the genome

**Q.** Does “GAGAGTTTTACTGTCTCTAAATGAAAGGTTCTAATACGGTGGATCGAATAATTTCTTGCGTTTTTATCCGGATCGCCGAACACGATTCCATCTTAAAATCTTTTTGTTTACATTATACGAGGTGATCAACAATGCCAGCTTTTTCCGGTT (double strand) [CODH promoter 150-bp probe]” bind?
**A.** binds more weakly

For at least one entry, the source does not settle the construct or the ends of the probe. Weaker means in comparison with the reference protein, sequence or condition of that experiment.
